Data on ten compounds can be found in patent US20250101038A1, “COMPOUNDS” (priority 2021, published 2025).

The chains behind the UniProt entries cited, without tags or fusion partners. Residues count along the entry.
UniProt P28223, whole entry: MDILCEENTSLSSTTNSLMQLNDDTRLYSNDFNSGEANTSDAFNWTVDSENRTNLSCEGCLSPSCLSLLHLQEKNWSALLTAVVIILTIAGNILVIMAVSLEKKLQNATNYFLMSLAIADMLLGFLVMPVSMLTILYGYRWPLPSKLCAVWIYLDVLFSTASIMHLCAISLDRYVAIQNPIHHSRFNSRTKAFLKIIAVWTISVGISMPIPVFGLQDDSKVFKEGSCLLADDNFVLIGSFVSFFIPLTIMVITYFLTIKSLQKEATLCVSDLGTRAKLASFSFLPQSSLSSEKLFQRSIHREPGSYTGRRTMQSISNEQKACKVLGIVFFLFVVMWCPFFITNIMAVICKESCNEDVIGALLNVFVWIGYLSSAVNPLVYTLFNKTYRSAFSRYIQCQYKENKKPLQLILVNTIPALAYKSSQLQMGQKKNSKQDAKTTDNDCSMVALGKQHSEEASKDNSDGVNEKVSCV
UniProt P41595, whole entry: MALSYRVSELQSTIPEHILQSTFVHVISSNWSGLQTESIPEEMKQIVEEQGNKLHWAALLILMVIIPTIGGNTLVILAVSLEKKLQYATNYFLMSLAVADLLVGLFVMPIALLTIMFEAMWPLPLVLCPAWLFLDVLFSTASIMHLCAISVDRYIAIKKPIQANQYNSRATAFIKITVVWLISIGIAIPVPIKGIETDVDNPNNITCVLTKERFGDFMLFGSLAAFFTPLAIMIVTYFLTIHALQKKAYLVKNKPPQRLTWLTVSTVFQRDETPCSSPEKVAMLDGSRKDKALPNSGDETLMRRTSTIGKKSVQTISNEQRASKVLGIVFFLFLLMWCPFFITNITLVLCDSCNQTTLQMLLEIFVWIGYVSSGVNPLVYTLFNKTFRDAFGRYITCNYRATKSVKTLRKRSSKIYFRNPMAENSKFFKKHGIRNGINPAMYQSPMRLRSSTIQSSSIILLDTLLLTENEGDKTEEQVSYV
UniProt P28335, 33-458 limits assumed: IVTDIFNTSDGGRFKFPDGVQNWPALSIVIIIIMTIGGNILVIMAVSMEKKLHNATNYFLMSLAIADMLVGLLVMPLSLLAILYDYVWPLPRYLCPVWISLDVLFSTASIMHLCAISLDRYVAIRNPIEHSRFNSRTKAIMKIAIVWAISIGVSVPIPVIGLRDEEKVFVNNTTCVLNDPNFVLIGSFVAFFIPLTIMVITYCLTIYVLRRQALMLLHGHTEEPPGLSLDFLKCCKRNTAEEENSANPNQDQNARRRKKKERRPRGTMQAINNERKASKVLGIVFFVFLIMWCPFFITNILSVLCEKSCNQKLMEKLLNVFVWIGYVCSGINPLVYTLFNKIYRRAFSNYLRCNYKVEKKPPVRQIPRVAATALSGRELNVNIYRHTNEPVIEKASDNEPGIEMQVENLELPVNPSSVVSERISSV

One assay deals with 5-HT2A receptor (Homo sapiens, UniProt P28223). Put plainly: FLIPR Ca2+ flux functional assay, 5-HT2A. It is filed as cell-based. The conditions noted are these: for 5-HT2A Emax: agonist activity, HEK293 cells. The protocol: Activity at 5-HT2A, 5-HT2B and 5-HT2C receptors was determined using a FLIPR Ca^2+ flux assay at WuXi AppTec Co. Ltd. (Hong Kong) Discovery Biology Unit according to their standard protocols. Briefly, stably transfected cells expressing the receptor of interest (HEK293 for 5-HT2A and 5-HT2C; CHO-K1 for 5-HT2B) were grown and plated in a 384 well plate and incubated at 37° C. and 5% CO2 overnight. A 250 mM stock solution of probenecid in FLIPR calcium assay buffer (10 mL) was freshly prepared and combined with a fluorescent dye (Fluo-4 Direct) to give a final assay concentration of 2.5 mM. Reference compounds were 4-fold serially diluted and the screening compounds were 3-fold serially diluted in 100% DMSO for 10 points using Agilent Bravo, and 750 nL was added to a 384 well compound plate using Echo along with 30 μL assay buffer. The fluorescent dye was then added to the assay plate along with assay buffer to a final volume of […]. The cell plate was incubated for 50 min at 37° C. and 5% CO2 and placed into the FLIPR Tetra along with the compound plate. 10 μL of references and compounds were then transferred from the compound plate into the cell plate and the fluorescent signal was read.
(A change in cytosolic calcium serves as a functional read-out for many receptors and channels.)

A further assay concerns the target 5-HT2B receptor (Homo sapiens, UniProt P41595). The settings on record: for pEC50: read-out: 5-HT2B EC50.
The target in the next assay is 5-HT2C receptor (Homo sapiens, UniProt P28335). The settings on record: agonist activity, Ca2+ flux, HEK293 cells; for pEC50: read-out: 5-HT2C EC50.
Setting [1] is: read-out: 5-HT2A EC50, agonist activity, HEK293 cells, tested form: fumarate.
[2] abbreviates: agonist activity, Ca2+ flux, CHO-K1 cells, tested form: fumarate.
Where [3] appears, read: read-out: 5-HT2A EC50, agonist activity, HEK293 cells, tested form: oxalate.
Setting [4] is: agonist activity, Ca2+ flux, CHO-K1 cells, tested form: oxalate.
Where [5] appears, read: agonist activity, Ca2+ flux, CHO-K1 cells, tested form: HCl.

Molecules are shown by their SMILES. pEC50: −log10 of the molar value. Read-outs that look alike come from different tables or passages of the source. The match of structure and compound is tentative.

A word on the pEC50: it is −log10 of the EC50, conventionally taken in molar units. As for `CCN(CC)CCc1c[nH]c2cc(C)cc(OC)c12`, the “5-HT2A Emax” value on 5-HT2A receptor (tested form: fumarate) is 57.54%. Also, the pEC50 on 5-HT2A receptor (setting [1]) is 6.55. Further, on 5-HT2B receptor (setting [2]), the “5-HT2B Emax” value was determined as 1.13% and the pEC50 is < 5.00. Besides, at 5-HT2C receptor (tested form: fumarate), the “5-HT2C Emax” value is on record as 54.82% and the negative-log EC50 (pEC50) was 5.78.
As for `CCN(C)CCc1c[nH]c2cc(C)cc(OC)c12`, the “5-HT2A Emax” value on 5-HT2A receptor (tested form: fumarate) came to 64.68%. In addition, the negative-log EC50 (pEC50) is 7.15 on 5-HT2A receptor (setting [1]), < 5.00 at 5-HT2B receptor (tested form: fumarate) and 6.52 at 5-HT2C receptor (tested form: fumarate). In addition, on 5-HT2B receptor (setting [2]), the “5-HT2B Emax” value is recorded as 0.25%. Further, the “5-HT2C Emax” value at 5-HT2C receptor (tested form: fumarate) is 54.66%.
On to `COc1ccc2[nH]cc(CCN(C)C(C)C)c2c1F`, for which the “5-HT2A Emax” value at 5-HT2A receptor (tested form: fumarate) stood at 89.89%. Besides, the pEC50 at 5-HT2A receptor (setting [1]) is 7.00. On 5-HT2B receptor (setting [2]), the “5-HT2B Emax” value worked out at 15.06% and the negative logarithm of the EC50 (pEC50) was < 5.00. For the same compound, on 5-HT2C receptor (tested form: fumarate), the “5-HT2C Emax” value turned out to be 87.22% and the negative logarithm of the EC50 (pEC50) is 6.47.
On to `CCN(CC)CCc1c[nH]c2ccc(OC)c(F)c12`, for which, on 5-HT2A receptor (tested form: fumarate), the “5-HT2A Emax” value turned out to be 88.19%. For the same compound, the pEC50 on 5-HT2A receptor (setting [1]) was 6.92. In addition, at 5-HT2B receptor (setting [2]), the “5-HT2B Emax” value worked out at 33.44% and the pEC50 was < 5.00. For the same compound, on 5-HT2C receptor (tested form: fumarate), the “5-HT2C Emax” value is 86.34% and the pEC50 was 6.38.
With `COc1cc(C)cc2[nH]cc(CCN(C)C(C)C)c12`, the “5-HT2A Emax” value on 5-HT2A receptor (tested form: fumarate) stood at 70.74%. The negative logarithm of the EC50 (pEC50) on 5-HT2A receptor (setting [1]) was 7.25. In addition, at 5-HT2B receptor (setting [2]), the “5-HT2B Emax” value was 0.35% and the negative logarithm of the EC50 (pEC50) is < 5.00. In addition, on 5-HT2C receptor (tested form: fumarate), the “5-HT2C Emax” value amounted to 27.92% and the negative logarithm of the EC50 (pEC50) was 5.65.
Take `COc1cc(C)c2[nH]cc(CCN(C)C(C)C)c2c1`: at 5-HT2A receptor (tested form: oxalate), the “5-HT2A Emax” value is recorded as 90.53%. In addition, the negative-log EC50 (pEC50) on 5-HT2A receptor (setting [3]) is 7.19. For the same compound, on 5-HT2B receptor (setting [4]), the “5-HT2B Emax” value was 1.72% and the negative logarithm of the EC50 (pEC50) was < 5.00. For the same compound, at 5-HT2C receptor (tested form: oxalate), the “5-HT2C Emax” value is on record as 19.78% and the pEC50 was < 5.00.
As to `CCN(C)CCc1c[nH]c2ccc(OC)c(F)c12`, the “5-HT2A Emax” value at 5-HT2A receptor (tested form: oxalate) was determined as 99.59%. At 5-HT2A receptor (setting [3]), the negative-log EC50 (pEC50) was 7.28. Moreover, on 5-HT2B receptor (setting [4]), the “5-HT2B Emax” value is recorded as 5.29% and the negative logarithm of the EC50 (pEC50) is < 5.00. Moreover, on 5-HT2C receptor (tested form: oxalate), the “5-HT2C Emax” value is 93.06% and the pEC50 is 7.60.
For `CCN(CCc1c[nH]c2c(C)cc(OC)cc12)C(C)C`, on 5-HT2A receptor (tested form: HCl), the “5-HT2A Emax” value is on record as 73.14%. The pEC50 on 5-HT2A receptor (read-out: 5-HT2A EC50, agonist activity, HEK293 cells, tested form: HCl) is 6.07. In addition, on 5-HT2B receptor (setting [5]), the “5-HT2B Emax” value is listed as 5.84% and the negative logarithm of the EC50 (pEC50) is < 5.00. Moreover, on 5-HT2C receptor (tested form: HCl), the “5-HT2C Emax” value worked out at 82.76% and the negative-log EC50 (pEC50) is 6.04.
Take `COc1ccc2[nH]cc(CCN(C(C)C)C(C)C)c2c1F`: the “5-HT2A Emax” value on 5-HT2A receptor (tested form: fumarate) worked out at 95.38%. In addition, the negative logarithm of the EC50 (pEC50) at 5-HT2A receptor (setting [1]) was 6.94; on 5-HT2B receptor (setting [2]), 6.32; at 5-HT2C receptor (tested form: fumarate) it was 6.05. The “5-HT2B Emax” value at 5-HT2B receptor (setting [2]) amounted to 107.28%. Besides, the “5-HT2C Emax” value on 5-HT2C receptor (tested form: fumarate) is listed as 90.69%.
Turning to `COc1cc(C)cc2[nH]cc(CCN(C(C)C)C(C)C)c12`, the “5-HT2A Emax” value on 5-HT2A receptor (tested form: fumarate) was 53.06%. For the same compound, at 5-HT2A receptor (setting [1]), the negative-log EC50 (pEC50) was 5.13. At 5-HT2B receptor (setting [2]), the “5-HT2B Emax” value was 68.08% and the negative logarithm of the EC50 (pEC50) was 5.99. Besides, on 5-HT2C receptor (tested form: fumarate), the “5-HT2C Emax” value was found to be 63.93% and the pEC50 was 5.21.
